Assay results reported in patent US20100021895A1, “Vectors for Inducing Homozygous Mutations and Methods of Using Same” (priority 2006, published 2010).
At least one compound was matched to its structure with a doubt left. Marks after values point to notes of the source that are not given here. Some results were stated once for a whole list of compounds, not compound by compound.

Tested on: mouse embryonic stem cell clones, each containing a neomycin resistance gene (Neo) inserted by the GTR1.3 gene trap retrovirus
Test: Carcinogen-induced LOH: frequency of colony formation in 2.0 mg/ml G418
Format: cell-based
Settings: for frequency of colony formation: 2 mg/ml G418 0.5 mM MNU
Method: Carcinogen-induced LOH was measured in a panel of 53 mouse embryonic stem cell clones, each containing a neomycin resistance gene (Neo) inserted into a different cellular gene (FIG. 9) by the GTR1.3 gene trap retrovirus. Gene entrapment by GTR1.3 involves selection for inserted Neo sequences that can splice to the 3′ ends of cellular genes (Lin et al.,). The disrupted genes were identified by sequencing Neo-gene fusion transcripts and were localized on the mouse genome. Previous studies have shown that cells homozygous for GTR1.3-induced mutations can be selected from heterozygous cells simply by selecting for resistance to higher concentrations of G418, a method first shown to select for homozygous mutations induced by gene targeting (15). Mitotic recombination appears to be the preferred mechanism of spontaneous LOH involving Neo genes inserted in ES cells (17) and LOH involving other genes and cell types in vivo (12, 13). LOH doubles the number of Neo genes per cell and thus allows moderately resistant cells to acquire resistance to higher concentrations of G418. The frequencies of spontaneous LOH measured at the 53 different sites ranged from 1.3×10^−5 to 1.2×10^−4 (Table 3), similar to those reported for other inserted neomycin resistance genes (15, 17) in ES cells and for loci such as TK and APRT in other cell types (12, 13).
A variety of chemical agents were tested for their ability to enhance the frequencies at which mutant cells survive in 2.0 mg/ml G418. Methyl-nitrosurea (MNU) is an alkylating agent that produces a variety of mono-methylated DNA adducts, hydroxyurea (HU) stalls DNA replication complexes, doxorubicin interferes with DNA synthesis, methothrexate is a competitive inhibitor of dihydrofolate reductase but is not genotoxic, diepoxybutane and mitomycin C induce inter-strand DNA crosslinks, UV irradiation causes intra- and inter-strand pyrimidine dimmers, and ethidium bromide intercalates between DNA strands to damage DNA (For additional information about these agents see http://toxnet.nlm.nih.gov and http://lisntweb.swan.ac.uk/cmgt/index.htm). […] The fold-increase for MNU and HU ranged from 39-123 and 18-68, respectively (Table 3). The optimal concentrations of each agent to stimulate colony formation with minimal toxicity (<5% loss of cell viability) were determined in advance (FIG. 13). […] Each of these agents was tested two or more times on at least 25 entrapment lines.
Serially diluted cells were plated onto 150 mm plates containing drug-free media and allowed to attach overnight. Unattached cells were removed and media containing the indicated concentrations of methyl-nitrosourea, hydroxyurea, ethidium bromide, doxorubicin, methotrexate, diepoxybutane, or mitomycin C was put onto cells for 4 hours (or cells were exposed to ultraviolet light in the absence of media and allowed to recover in drug-free media for 4 hours). Cells were then rinsed twice with drug-free media and selection media containing 0.0, 0.3, or 2.0 mg/ml G418 was put onto cells. After 12 days of selection, the number of colonies surviving was counted and the frequency of colony formation was determined by dividing the number of colonies obtained from 2.0 mg/ml G418 selection to that obtained from parallel experiments with 0.3 mg/ml G418 selection. TK gene loss was assessed following selection in media containing 2 μg/ml gancyclovir.
Table 3. The frequency of colony formation in high concentrations of G418. The frequency of colony formation is listed for all 53 clones examined. Frequency was determined by dividing the number of colonies surviving 2.0 mg/ml G418 selection to the number surviving parallel experiments with 0.3 mg/ml G418 selection, and is the average of at least 3 independent experiments for each clone. Standard deviations, which ranged from 5 to 70% of the mean values, have been omitted for clarity. […]

Compound: CN(N=O)C(N)=O [MNU, methyl-nitrosourea]
- frequency of colony formation (clone b2p1-a5 (12C3)): 4.06 × 10-3**
- frequency of colony formation (clone b2p1-a9 (2H1)): 4.49 × 10-3**
- frequency of colony formation (clone b2p1-b4 (9E1)): 3.84 × 10-3**
- frequency of colony formation (clone b2p1-b9 (4B1)): 2.41 × 10-3**
- frequency of colony formation (clone b2p1-c6 (19A)): 7.72 × 10-4*
- frequency of colony formation (clone b2p1-d3 (19C1)): 1.73 × 10-3**
- frequency of colony formation (clone b2p1-d8 (4D2.3)): 4.42 × 10-3**
- frequency of colony formation (clone b2p1-d9 (7E3)): 5.46 × 10-3**
- frequency of colony formation (clone b2p1-d10 (9A1)): 1.62 × 10-3**
- frequency of colony formation (clone b2p1-e3 (4D2.3)): 3.74 × 10-3**
- frequency of colony formation (clone b2p1-e10 (19C1)): 3.28 × 10-3**
- frequency of colony formation (clone b2p1-f3 (17E1.3)): 3.57 × 10-3**
- frequency of colony formation (clone b2p1-f10 (3F2.1)): 5.37 × 10-3**
- frequency of colony formation (clone b2p1-f12 (1H5)): 8.44 × 10-3**
- frequency of colony formation (clone b2p1-h1 (7A2)): 1.59 × 10-3**
- frequency of colony formation (clone b2p1-h5 (1H5)): 7.59 × 10-3**
- frequency of colony formation (clone b2p1-h8 (6A3.3)): 2.60 × 10-3**
- frequency of colony formation (clone b3p1-h1 (18E2)): 4.44 × 10-3**
- frequency of colony formation (clone b3p3-a4 (4A5)): 4.05 × 10-3**
- frequency of colony formation (clone b3p3-a9 (4A5)): 2.65 × 10-3**
- frequency of colony formation (clone b3p3-b6 (3F1)): 3.00 × 10-3**
- frequency of colony formation (clone b3p3-c8 (14A3)): 3.45 × 10-3**
- frequency of colony formation (clone b3p3-c12 (5G2)): 2.60 × 10-3*
- frequency of colony formation (clone b3p3-d4 (1C3)): 1.36 × 10-3**
- frequency of colony formation (clone b3p3-d8 (1C2)): 3.63 × 10-3**
- frequency of colony formation (clone b3p3-d9 (4E2)): 8.77 × 10-3**
- frequency of colony formation (clone b3p3-g6 (10C2)): 3.42 × 10-3**
- frequency of colony formation (clone b3p3-g10 (4E1)): 7.08 × 10-3**
- frequency of colony formation (clone b3p3-h2 (19C1)): 4.40 × 10-3**
- frequency of colony formation (clone b3p3-h4 (5E2)): 2.53 × 10-3**
- frequency of colony formation (clone b3p3-h8 (19A)): 1.37 × 10-3**
- frequency of colony formation (clone b3p4-a1 (4A4)): 4.60 × 10-3**
- frequency of colony formation (clone b3p4-a5 (3B)): 8.13 × 10-4*
- frequency of colony formation (clone b3p4-b1 (3A2)): 1.68 × 10-3**
- frequency of colony formation (clone b3p4-b2 (11B1.3)): 3.54 × 10-3**
- frequency of colony formation (clone b3p4-b8 (4C6)): 4.18 × 10-3**
- frequency of colony formation (clone b3p4-b12 (3A1)): 4.98 × 10-3**
- frequency of colony formation (clone b3p4-c1 (17B3)): 2.94 × 10-3**
- frequency of colony formation (clone b3p4-c2 (8C3)): 7.13 × 10-3**
- frequency of colony formation (clone b3p4-c9 (15F2)): 3.54 × 10-3*
- frequency of colony formation (clone b3p4-c12 (17E2)): 6.05 × 10-3**
- frequency of colony formation (clone b3p4-d10 (14E5)): 9.49 × 10-3**
- frequency of colony formation (clone b3p4-d12 (1C3)): 3.32 × 10-3**
- frequency of colony formation (clone b3p4-e1 (2G3)): 6.22 × 10-3**
- frequency of colony formation (clone b3p4-e3 (15D3)): 4.97 × 10-3**
- frequency of colony formation (clone b3p4-e7 (12C1)): 1.86 × 10-3**
- frequency of colony formation (clone b3p4-f2 (4E1)): 5.04 × 10-3**
- frequency of colony formation (clone b3p4-f6 (7E3)): 4.46 × 10-3**
- frequency of colony formation (clone b3p4-f10 (8A4)): 3.78 × 10-3**
- frequency of colony formation (clone b3p4-g3 (1C3)): 3.48 × 10-3**
- frequency of colony formation (clone b3p4-g8 (10C1)): 3.70 × 10-3**
- frequency of colony formation (clone b3p4-g9 (2C2)): 3.17 × 10-3**
- frequency of colony formation (clone b3p4-h11 (8A1.1)): 1.30 × 10-3**
- frequency of stimulated LOH (brief exposures to non-toxic levels, all loci (53 sites)): 1-8×10^−3
- share of the total LOH induced within 24 hours of exposure (time course, selection in 2.0 mg/ml G418 at various times after treatment (FIG. 14)): Over 90%
